According to publication PMC4931237:
Results are given in words; binding and its absence hold for the method and conditions named. In cells and extracts the contact can be indirect. Some results given as binding are weak or reduced against the parent protein; the word gives no strength.

Amino acid sequences for entries named in this document (tags omitted).
UniProt Q9Z2X8: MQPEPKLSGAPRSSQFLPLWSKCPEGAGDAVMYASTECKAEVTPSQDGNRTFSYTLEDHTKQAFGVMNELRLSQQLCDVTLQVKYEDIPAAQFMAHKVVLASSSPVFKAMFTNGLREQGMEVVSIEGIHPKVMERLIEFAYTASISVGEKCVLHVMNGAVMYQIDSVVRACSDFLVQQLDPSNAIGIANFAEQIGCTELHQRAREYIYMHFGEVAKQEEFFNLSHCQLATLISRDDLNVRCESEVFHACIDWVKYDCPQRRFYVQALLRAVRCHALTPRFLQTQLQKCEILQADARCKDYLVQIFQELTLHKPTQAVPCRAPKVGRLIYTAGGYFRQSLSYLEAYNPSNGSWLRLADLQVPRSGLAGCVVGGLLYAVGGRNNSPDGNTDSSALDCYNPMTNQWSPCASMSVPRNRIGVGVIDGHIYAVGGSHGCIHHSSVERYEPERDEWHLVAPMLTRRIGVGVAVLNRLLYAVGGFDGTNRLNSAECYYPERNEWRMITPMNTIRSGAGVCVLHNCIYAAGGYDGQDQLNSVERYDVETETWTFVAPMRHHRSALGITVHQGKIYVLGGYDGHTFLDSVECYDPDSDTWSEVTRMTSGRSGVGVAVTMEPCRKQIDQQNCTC

Biological target: FLAG-Keap1 (UniProt Q9Z2X8)
Assay: co-IP

B1: Nrf2 (endogenous, Huh1 cells) (protein, UniProt Q16236 1-605)
chain: MMDLELPPPGLPSQQDMDLIDILWRQDIDLGVSREVFDFSQRRKEYELEKQKKLEKERQEQLQKEQEKAFFAQLQLDEETGEFLPIQPAQHIQSETSGSANYSQVAHIPKSDALYFDDCMQLLAQTFPFVDDNEVSSATFQSLVPDIPGHIESPVFIATNQAQSPETSVAQVAPVDLDGMQQDIEQVWEELLSIPELQCLNIENDKLVETTMVPSPEAKLTEVDNYHFYSSIPSMEKEVGNCSPHFLNAFEDSFSSILSTEDPNQLTVNSLNSDATVNTDFGDEFYSAFIAEPSISNSMPSPATLSHSLSELLNGPIDVSDLSLCKAFNQNHPESTAEFNDSDSGISLNTSPSVASPEHSVESSSYGDTLLGLSDSEVEELDSAPGSVKQNGPKTPVHSSGDMVQPLSPSQGQSTHVHDAQCENTPEKELPVSPGHRKTPFTKDKHSSRLEAHLTRDELRAKALHIPFPVEKIINLPVVDFNEMMSKEQFNEAQLALIRDIRRRGKNKVAAQNCRKRKLENIVELEQDLDHLKDEKEKLLKEKGENDKSLHLLKKQLSTLYLEVFSMLRDEDGKPYSPSEYSLQQTRDGNVFLVPKSKKPDVKKN
binding: binds
